Results reported in paper PMC7862700.
Only a part is listed here, and it is no random draw. At the low end of the ranking, values are background and their order means little.

Chains of the proteins cited; added tags and fusions are not shown. Lines headed by an entry give the natural chain unless they say otherwise; changes in a name come on top.
UniProt O43186: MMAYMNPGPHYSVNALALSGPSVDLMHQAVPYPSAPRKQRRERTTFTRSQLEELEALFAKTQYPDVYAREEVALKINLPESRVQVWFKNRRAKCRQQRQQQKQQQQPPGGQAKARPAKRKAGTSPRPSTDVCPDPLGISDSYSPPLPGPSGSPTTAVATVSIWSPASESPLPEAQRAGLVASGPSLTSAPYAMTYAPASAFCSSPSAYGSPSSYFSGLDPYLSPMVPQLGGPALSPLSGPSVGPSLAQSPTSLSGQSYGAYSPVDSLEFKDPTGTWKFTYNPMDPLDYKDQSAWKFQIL

The sequences below were run against CRX (UniProt O43186) (assay: DAPPL (digital affinity profiling via proximity ligation, sequencing)). Settings: 10 mM Tris-HCl pH 7.5, 50 mM NaCl, 1 mM DTT, 4% glycerol, room temperature, 30 min; GST-TFs on glutathione beads, 16-mer random dsDNA library, 0.1% …; high values mean tight binding; double strand, one strand shown; scale: fold enrichment (6-mer frequency, TF over GST control).

Sequence	binding signal
CCTACG	1.11
TGGTTT	1.5
ACATAT	1.12
TCTCCC	1.7
ACTAAC	1.18
TGTTCA	0.919
GATTCC	1.15
ACCAAT	1.16
CGACAC	0.789
CTTTCA	1.25
GCATCC	0.721
GGCTTC	1.25
AAAGAC	1.13
TGCCTG	0.987
ACATTG	0.879
TTAAAG	2.66
ATAAAT	1.75
TACTTT	1.71
CACTCT	1.08
TCCGGC	1.1

Shown as comma-separated lines: part of the list above
Sequence,binding signal
CCTACG,1.11
TGGTTT,1.5
ACATAT,1.12
TCTCCC,1.7
ACTAAC,1.18
TGTTCA,0.919
GATTCC,1.15
ACCAAT,1.16

(cont.)

Sequence	binding signal
CAATAA	1.46
AATCAA	1.32
GCCCTT	1.06
GAACCC	0.87
GATATC	1.02
CCTGGG	0.97
CATCCC	1.05
ACTTTC	1.63
CGATAC	0.98
CAAAAA	1.02
CTGGCC	0.902
ACTAAA	1.6
CTTTTA	1.61
TTTGGC	1.49
TATTCT	1.9
GATCCT	1.66
ATGGTA	1.33
TTGGTG	1.28
AACCAA	1.09
AACAAA	1.14
